Data reported in patent CN116981688A.
These are yes or no findings as the source states them, for the method shown. Some binding calls cover weakened binding; strength is not graded here.

Target: T1, 重组PRDX4 (UniProt Q13162)
T1 sequence (looked up): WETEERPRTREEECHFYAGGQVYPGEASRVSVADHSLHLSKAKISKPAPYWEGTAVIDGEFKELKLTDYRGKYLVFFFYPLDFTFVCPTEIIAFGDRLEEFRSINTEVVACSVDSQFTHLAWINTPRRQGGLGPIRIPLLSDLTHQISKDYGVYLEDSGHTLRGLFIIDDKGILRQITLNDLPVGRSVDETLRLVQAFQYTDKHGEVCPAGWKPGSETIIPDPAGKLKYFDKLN
Assay: immunoprecipitation of 10 ng recombinant PRDX4 with 11F2 beads, western blot

B1: 抗体11F2 (antibody, V domains shown)
VH: QVQLQQSGAELVKPGTSVKLSCKASGYTFSTHHMHWIKETTGQGLEWIGIINPGNGGTKYNVKFKGKATLTVDSSSSTAFMQLGSLTPEDSAVYYCARGNPASFDYWGQGVMVTVSS
VL: DIQMTQSPSFLSASVGDRVTINCKASQNIYKYLNWYQQKLGEAPKRLIYNTNNLETDIPSRFSGSGSGTDYTFTISSLQPEDFATYFCLQHSNFPFTFGSGTKLEIKR
B1 was tested, and the binding was “binds”.
